# PubChem BioAssay AID504594 (Broad Institute, 2011)
# In all, about 2,000 compounds went through this assay and fewer than 10 were called active.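 Rule for the calls: active = growth inhibition of at least 75% in every replicate, which also brings the mean inhibition to 75% or more; inconclusive = mean inhibition 75% or more but some replicate under 75%; inactive = the rest.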 The list shows a part of the results.
# Test: growth inhibition of PfHsp90-dependent yeast, primary screen, antimalarial PfHsp90 inhibitor project, S. cerevisiae, BacTiter-Glo luminescence (AID 504594);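 note: 0% = DMSO neutral control wells and 100% = 20 µM radicicol control wells; higher value means stronger growth inhibition because the sign is flipped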
# Details: S. cerevisiae expressing PfHsp90, BacTiter-Glo growth, 48 h; at 9.4 µM; active compounds read high
row,Structure (SMILES),growth inhibition
1,CC(NC(=O)OCc1ccccc1)C(=O)N1CC(O)CC1C(=O)O (configuration not stated),inactive: -2.18%
2,COc1ccc(C(=O)Oc2ccc3c(C)cc(=O)oc3c2C(C)=O)cc1,inactive: -0.103%
3,NS(=O)(=O)c1ccc(CNC(=O)c2cc(-c3ccccc3)nc3ccccc23)cc1,inactive: 2.94%
4,Fc1ccc(NC(=S)Nc2ccccc2Cl)cc1,inactive: 3.46%
5,CC(=O)OC[C@H]1O[C@@H](n2ncc(=O)[nH]c2=O)[C@H](OC(C)=O)[C@@H]1OC(C)=O,inactive: 6.23%
6,O=C(O)C1Sc2[nH]c(=O)sc2C2c3ccc(O)cc3OC(=O)C12 (configuration not stated),inactive: -1.06%
7,CN1C(=O)C(O)(CC(=O)c2ccccc2O)c2cc(Br)ccc21 (configuration not stated),inactive: 1.22%
8,COc1cc2c(cc1OC)C(=S)NC(C)(C)C2,inactive: 0.946%
9,COc1ccc(C2NC(=O)c3ccccc3N2)cc1OC (configuration not stated),inactive: -3.61%
10,O=C(/C=C/c1ccco1)N1CCN(c2ccccc2)CC1,inactive: 2.4%
11,O=C(O)/C=C/c1ccc(O)c(O)c1,inactive: 8.18%
12,O=C(Nc1ccc(Cl)cn1)Nc1ccccc1Cl,inactive: -7.62%
13,C[N+](C)(C)CCCCCCCCCC[N+](C)(C)C,inactive: 3.9%
14,Cc1[nH]c2ccccc2c1/C=C/c1nc2ccccc2c(=O)n1CCO,inactive: 2.99%
15,CC1=C(/C=C/C(C)=C/C=C/C(C)=C/C(=O)O)C(C)(C)CCC1,inactive: -3.35%
16,O=C(Nc1ccccc1)c1ccccc1CCc1ccccc1,inactive: -14.9%
17,Cc1ccc(CN2CCN(CCCc3ccccc3)CC2CCO)cc1 (configuration not stated),inactive: -17.6%
18,CCN(Cc1cnn(C)c1)Cc1nc(C(c2ccccc2)c2ccccc2)no1,inactive: 6.67%
19,CCCCCC#CCC#CCC#CCC#CCCCC(=O)O,inactive: -41.8%
20,Cc1cc(=O)oc2cc(OC(C)C(=O)NCC3CCCO3)ccc12 (configuration not stated),inactive: -2.4%
21,CCO/C([O-])=N/c1c[n+](N2CCOCC2)no1,inactive: -3.56%
22,COc1ccc(CCNc2ncnc3c2[nH]c2cc(OC)c(OC)cc23)cc1OC,inactive: 10%
23,COCCOC(=O)c1c(C)oc2ccc(OCc3cc(C(=O)OC)oc3C)cc12,inactive: 2.24%
24,O=C1C(=O)c2ccccc2C(O)=C1c1ccccc1F,inactive: -6.57%
25,COc1cc(C(=O)NCCCCCC(=O)O)cc(OC)c1OC,inactive: -10.6%
26,COc1cc(OC)c(C2C(C#N)=C(N)OC3=C2C(=O)CC(C)(C)C3)cc1OC (configuration not stated),inactive: 12.3%
27,COC(=O)c1cc(C(=O)NCCC(C)C)cc([N+](=O)[O-])c1,inactive: 6.94%

# Compounds from the list above that have a furan ring, fused or not:
row,Structure (SMILES),growth inhibition
10,O=C(/C=C/c1ccco1)N1CCN(c2ccccc2)CC1,inactive: 2.4%
23,COCCOC(=O)c1c(C)oc2ccc(OCc3cc(C(=O)OC)oc3C)cc12,inactive: 2.24%
